{"sequences": {"note": "By UniProt entry, the sequences of proteins in these tests, tags left out. Where a name states a change or a piece, a line headed by the entry shows the natural chain unless it says otherwise.", "UniProt Q13435": "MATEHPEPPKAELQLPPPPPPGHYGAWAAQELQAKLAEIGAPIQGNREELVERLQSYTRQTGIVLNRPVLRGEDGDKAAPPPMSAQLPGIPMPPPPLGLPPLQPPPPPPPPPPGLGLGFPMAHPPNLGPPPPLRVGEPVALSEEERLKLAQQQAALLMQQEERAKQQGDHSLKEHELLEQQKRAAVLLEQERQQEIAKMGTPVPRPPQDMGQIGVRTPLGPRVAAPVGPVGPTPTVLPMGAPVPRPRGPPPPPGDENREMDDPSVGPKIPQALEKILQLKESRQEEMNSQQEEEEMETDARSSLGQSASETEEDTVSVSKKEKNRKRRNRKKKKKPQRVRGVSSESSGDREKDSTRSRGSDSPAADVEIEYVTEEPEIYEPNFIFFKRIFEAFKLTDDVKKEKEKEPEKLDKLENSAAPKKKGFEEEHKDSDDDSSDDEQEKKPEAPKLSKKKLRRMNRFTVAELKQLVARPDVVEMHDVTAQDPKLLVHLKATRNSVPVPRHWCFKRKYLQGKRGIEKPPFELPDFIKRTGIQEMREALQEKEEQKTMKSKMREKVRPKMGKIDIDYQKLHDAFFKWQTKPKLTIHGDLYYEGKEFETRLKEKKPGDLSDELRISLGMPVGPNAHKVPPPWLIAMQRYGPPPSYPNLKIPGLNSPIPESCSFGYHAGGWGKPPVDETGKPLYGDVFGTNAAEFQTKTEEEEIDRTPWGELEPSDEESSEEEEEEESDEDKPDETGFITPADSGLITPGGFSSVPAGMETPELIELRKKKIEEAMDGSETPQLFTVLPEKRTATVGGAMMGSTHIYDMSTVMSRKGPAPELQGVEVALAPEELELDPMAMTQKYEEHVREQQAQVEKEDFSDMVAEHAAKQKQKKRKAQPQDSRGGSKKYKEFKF", "UniProt Q01650": "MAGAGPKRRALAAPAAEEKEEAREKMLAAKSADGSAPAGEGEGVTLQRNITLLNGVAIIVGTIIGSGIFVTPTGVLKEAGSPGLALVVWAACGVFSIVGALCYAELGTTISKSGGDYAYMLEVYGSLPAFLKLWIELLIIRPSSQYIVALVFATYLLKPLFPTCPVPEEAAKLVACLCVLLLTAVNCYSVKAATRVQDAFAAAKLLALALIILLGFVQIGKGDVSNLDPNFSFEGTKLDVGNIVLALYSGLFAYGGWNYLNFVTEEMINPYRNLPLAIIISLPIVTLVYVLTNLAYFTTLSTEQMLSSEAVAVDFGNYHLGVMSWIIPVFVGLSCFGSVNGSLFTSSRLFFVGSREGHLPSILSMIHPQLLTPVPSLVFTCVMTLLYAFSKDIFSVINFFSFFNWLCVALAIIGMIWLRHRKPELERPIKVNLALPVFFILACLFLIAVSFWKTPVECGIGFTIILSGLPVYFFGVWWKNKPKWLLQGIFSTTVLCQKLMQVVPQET", "UniProt O75368": "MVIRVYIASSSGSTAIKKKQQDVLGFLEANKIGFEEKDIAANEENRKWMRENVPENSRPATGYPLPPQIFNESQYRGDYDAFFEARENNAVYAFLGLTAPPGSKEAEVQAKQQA", "UniProt P23246": "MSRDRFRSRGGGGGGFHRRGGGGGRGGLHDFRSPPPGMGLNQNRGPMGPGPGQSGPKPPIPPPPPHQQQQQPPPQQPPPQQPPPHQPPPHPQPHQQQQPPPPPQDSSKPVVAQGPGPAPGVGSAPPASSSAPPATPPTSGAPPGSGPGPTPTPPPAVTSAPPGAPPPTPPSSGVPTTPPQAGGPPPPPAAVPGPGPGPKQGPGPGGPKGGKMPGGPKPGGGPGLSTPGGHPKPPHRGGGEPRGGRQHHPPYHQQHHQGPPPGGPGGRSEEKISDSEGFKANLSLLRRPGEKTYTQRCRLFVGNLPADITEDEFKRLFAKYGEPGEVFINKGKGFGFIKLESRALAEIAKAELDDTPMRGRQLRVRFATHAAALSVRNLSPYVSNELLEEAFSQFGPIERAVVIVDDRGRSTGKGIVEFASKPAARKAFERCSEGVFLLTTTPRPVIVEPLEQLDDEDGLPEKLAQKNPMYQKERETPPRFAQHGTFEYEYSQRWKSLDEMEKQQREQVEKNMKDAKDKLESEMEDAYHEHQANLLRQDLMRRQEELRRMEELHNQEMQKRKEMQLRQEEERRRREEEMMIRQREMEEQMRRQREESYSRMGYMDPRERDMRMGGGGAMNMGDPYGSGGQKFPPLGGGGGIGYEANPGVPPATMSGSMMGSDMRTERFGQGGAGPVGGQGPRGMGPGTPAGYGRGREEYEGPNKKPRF", "UniProt Q9Y3L3": "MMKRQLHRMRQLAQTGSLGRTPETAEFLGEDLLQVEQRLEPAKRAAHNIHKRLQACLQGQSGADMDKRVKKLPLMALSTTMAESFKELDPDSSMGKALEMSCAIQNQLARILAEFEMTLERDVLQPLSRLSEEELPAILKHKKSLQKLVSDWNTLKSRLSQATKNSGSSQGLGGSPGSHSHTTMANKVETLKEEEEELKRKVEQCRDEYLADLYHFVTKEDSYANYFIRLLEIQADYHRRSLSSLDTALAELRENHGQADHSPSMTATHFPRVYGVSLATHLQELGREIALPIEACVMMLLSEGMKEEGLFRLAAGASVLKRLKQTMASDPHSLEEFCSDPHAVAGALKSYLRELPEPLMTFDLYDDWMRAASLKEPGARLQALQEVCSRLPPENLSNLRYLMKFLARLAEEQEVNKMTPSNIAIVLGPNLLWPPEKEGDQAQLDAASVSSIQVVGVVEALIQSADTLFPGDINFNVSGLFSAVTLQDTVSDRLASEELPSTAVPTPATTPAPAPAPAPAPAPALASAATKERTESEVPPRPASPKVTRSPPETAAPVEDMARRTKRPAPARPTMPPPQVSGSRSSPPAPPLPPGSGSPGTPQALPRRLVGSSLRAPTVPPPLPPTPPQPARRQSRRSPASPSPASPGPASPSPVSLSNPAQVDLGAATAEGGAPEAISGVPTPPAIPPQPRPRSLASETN", "UniProt O15427": "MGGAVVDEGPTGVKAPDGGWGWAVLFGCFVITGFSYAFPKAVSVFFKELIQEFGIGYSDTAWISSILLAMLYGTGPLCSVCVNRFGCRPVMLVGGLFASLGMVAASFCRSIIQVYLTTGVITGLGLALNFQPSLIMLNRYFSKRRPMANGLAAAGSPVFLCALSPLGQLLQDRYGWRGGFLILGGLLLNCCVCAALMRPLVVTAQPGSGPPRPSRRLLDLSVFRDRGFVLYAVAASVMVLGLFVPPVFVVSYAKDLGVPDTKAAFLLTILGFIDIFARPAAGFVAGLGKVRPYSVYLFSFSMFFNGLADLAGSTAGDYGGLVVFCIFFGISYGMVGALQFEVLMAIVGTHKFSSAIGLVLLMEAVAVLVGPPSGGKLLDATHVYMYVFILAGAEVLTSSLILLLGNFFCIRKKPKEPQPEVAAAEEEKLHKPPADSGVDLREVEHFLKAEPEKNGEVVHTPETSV", "UniProt Q6P1M0": "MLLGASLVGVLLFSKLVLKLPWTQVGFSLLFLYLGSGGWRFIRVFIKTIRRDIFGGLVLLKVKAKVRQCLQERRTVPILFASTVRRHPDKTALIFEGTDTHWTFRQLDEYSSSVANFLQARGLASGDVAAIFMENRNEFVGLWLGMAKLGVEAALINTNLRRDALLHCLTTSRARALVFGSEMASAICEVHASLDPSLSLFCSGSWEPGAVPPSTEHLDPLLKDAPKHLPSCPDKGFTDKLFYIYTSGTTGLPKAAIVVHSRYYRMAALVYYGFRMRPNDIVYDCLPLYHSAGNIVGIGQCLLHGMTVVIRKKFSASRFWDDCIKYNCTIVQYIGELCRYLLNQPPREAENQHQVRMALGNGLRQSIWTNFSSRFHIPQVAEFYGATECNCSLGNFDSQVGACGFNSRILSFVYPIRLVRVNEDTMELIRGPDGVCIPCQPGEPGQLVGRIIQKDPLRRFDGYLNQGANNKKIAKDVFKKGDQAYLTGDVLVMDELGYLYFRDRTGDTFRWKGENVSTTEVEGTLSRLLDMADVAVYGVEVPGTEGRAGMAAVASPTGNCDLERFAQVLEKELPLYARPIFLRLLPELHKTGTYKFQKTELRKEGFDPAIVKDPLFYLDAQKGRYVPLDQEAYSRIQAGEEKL", "UniProt Q12904": "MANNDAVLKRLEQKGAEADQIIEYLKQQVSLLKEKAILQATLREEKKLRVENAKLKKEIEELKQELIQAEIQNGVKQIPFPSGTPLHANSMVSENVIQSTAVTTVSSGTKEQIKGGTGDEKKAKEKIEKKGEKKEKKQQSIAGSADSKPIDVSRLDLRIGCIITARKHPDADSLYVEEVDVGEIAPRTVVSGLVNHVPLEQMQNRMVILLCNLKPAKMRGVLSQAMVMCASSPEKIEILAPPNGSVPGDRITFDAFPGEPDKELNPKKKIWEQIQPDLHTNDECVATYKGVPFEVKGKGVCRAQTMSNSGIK", "UniProt P05120, whole entry": "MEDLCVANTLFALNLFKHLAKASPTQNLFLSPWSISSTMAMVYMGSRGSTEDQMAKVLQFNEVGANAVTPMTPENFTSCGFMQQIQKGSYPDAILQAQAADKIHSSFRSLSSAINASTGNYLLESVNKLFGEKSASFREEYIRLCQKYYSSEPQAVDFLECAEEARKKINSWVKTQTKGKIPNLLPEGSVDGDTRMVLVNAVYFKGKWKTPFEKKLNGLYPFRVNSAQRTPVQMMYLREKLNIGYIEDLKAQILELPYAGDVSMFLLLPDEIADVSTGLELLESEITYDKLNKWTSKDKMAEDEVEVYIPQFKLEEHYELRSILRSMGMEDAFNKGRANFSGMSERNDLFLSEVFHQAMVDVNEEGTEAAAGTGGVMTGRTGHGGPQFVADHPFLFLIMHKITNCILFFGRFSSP", "UniProt Q8WTS6": "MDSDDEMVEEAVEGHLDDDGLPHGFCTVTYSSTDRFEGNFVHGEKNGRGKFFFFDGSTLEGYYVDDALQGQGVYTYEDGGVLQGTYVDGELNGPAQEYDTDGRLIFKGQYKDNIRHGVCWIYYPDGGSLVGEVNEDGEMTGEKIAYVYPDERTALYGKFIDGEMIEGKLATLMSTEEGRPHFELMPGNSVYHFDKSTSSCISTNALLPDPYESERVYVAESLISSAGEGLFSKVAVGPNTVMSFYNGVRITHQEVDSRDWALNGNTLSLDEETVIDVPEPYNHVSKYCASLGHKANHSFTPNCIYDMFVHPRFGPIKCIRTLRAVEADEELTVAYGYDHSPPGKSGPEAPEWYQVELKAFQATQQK", "UniProt Q16629": "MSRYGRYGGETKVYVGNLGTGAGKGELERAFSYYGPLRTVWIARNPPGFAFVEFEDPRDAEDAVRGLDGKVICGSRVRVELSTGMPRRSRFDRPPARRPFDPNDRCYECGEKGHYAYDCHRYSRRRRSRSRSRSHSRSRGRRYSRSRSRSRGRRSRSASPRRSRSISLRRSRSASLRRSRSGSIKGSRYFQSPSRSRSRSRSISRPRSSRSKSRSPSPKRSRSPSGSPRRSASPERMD", "UniProt O43765": "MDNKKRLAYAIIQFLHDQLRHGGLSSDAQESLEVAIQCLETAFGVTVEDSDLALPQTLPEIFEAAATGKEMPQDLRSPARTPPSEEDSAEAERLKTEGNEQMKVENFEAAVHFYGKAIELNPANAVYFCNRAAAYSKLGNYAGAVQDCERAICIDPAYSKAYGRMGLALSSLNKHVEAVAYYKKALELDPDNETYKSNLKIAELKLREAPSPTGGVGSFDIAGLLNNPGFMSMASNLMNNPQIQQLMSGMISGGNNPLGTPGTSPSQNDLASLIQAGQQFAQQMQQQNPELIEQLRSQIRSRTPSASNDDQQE", "UniProt Q53H47": "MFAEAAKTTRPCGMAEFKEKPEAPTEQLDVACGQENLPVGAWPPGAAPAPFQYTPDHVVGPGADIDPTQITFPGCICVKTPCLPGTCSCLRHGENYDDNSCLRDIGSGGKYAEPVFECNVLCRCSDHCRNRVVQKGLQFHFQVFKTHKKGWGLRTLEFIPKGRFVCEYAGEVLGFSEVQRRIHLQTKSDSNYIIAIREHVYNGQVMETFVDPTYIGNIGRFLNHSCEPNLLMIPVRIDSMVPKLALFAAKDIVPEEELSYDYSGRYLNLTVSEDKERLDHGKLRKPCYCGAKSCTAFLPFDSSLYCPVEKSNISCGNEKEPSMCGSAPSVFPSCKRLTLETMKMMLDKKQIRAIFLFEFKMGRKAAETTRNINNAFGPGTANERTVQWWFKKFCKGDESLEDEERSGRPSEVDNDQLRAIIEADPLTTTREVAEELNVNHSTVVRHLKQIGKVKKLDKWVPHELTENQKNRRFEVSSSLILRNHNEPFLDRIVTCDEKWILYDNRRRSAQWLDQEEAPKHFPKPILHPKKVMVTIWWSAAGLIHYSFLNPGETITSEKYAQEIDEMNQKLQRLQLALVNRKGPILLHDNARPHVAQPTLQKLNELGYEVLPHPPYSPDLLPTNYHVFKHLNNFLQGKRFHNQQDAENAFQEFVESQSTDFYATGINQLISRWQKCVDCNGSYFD"}, "source": "the supplement of paper PMC7666118", "note": "The other results are listed elsewhere or left out."}
{"compound": "COc1ccc(Cn2ccc3ccc(C(=O)NO)cc32)cc1", "test": "dose-dependent thermal stabilisation call (2D-TPP, DLPTP, 10% FDR) (binary (1 = stabilised)); higher = stabilised by the compound", "conditions": "system: HL-60 intact cells; concentration range 0.04-10 µM"}
{"target": "SLC25A12 (UniProt O75746)", "dose-dependent thermal stabilisation call": "active: 1"}
{"target": "SF3B2 (UniProt Q13435)", "dose-dependent thermal stabilisation call": "inactive: 0"}
{"target": "SLC25A11 (UniProt Q02978)", "dose-dependent thermal stabilisation call": "inactive: 0"}
{"target": "SETX (UniProt Q7Z333)", "dose-dependent thermal stabilisation call": "inactive: 0"}
{"target": "SLC4A2 (UniProt P04920)", "dose-dependent thermal stabilisation call": "inactive: 0"}
{"target": "SHC1 (UniProt P29353)", "dose-dependent thermal stabilisation call": "inactive: 0"}
{"target": "SLC7A5 (UniProt Q01650)", "dose-dependent thermal stabilisation call": "inactive: 0"}
{"target": "SH3BGRL (UniProt O75368)", "dose-dependent thermal stabilisation call": "inactive: 0"}
{"target": "SFPQ (UniProt P23246)", "dose-dependent thermal stabilisation call": "inactive: 0"}
{"target": "SH3BP1 (UniProt Q9Y3L3)", "dose-dependent thermal stabilisation call": "inactive: 0"}
{"target": "SLC16A3 (UniProt O15427)", "dose-dependent thermal stabilisation call": "inactive: 0"}
{"target": "SC4MOL (UniProt Q15800)", "dose-dependent thermal stabilisation call": "inactive: 0"}
{"target": "SLC27A4 (UniProt Q6P1M0)", "dose-dependent thermal stabilisation call": "inactive: 0"}
{"target": "SCYE1 (UniProt Q12904)", "dose-dependent thermal stabilisation call": "inactive: 0"}
{"target": "SLC25A40 (UniProt Q8TBP6)", "dose-dependent thermal stabilisation call": "inactive: 0"}
{"target": "SEPSECS (UniProt Q9HD40)", "dose-dependent thermal stabilisation call": "inactive: 0"}
{"target": "SLC25A16 (UniProt P16260)", "dose-dependent thermal stabilisation call": "inactive: 0"}
{"target": "SF4 (UniProt Q8IWZ8)", "dose-dependent thermal stabilisation call": "inactive: 0"}
{"target": "SLC7A1 (UniProt P30825)", "dose-dependent thermal stabilisation call": "inactive: 0"}
{"target": "SH3KBP1 (UniProt Q96B97)", "dose-dependent thermal stabilisation call": "inactive: 0"}
{"target": "SFRS15 (UniProt O95104)", "dose-dependent thermal stabilisation call": "inactive: 0"}
{"target": "SCP2 (UniProt P22307)", "dose-dependent thermal stabilisation call": "inactive: 0"}
{"target": "SEPT1 (UniProt Q8WYJ6)", "dose-dependent thermal stabilisation call": "inactive: 0"}
{"target": "SEC24B (UniProt O95487)", "dose-dependent thermal stabilisation call": "inactive: 0"}
{"target": "SERPINB8 (UniProt P50452)", "dose-dependent thermal stabilisation call": "inactive: 0"}
{"target": "SERPINB2 (UniProt P05120)", "dose-dependent thermal stabilisation call": "inactive: 0"}
{"target": "SLC39A10 (UniProt Q9ULF5)", "dose-dependent thermal stabilisation call": "inactive: 0"}
{"target": "SLC35F2 (UniProt Q8IXU6)", "dose-dependent thermal stabilisation call": "inactive: 0"}
{"target": "SETD7 (UniProt Q8WTS6)", "dose-dependent thermal stabilisation call": "inactive: 0"}
{"target": "SLC39A8 (UniProt Q9C0K1)", "dose-dependent thermal stabilisation call": "inactive: 0"}
{"target": "SFRS7 (UniProt Q16629)", "dose-dependent thermal stabilisation call": "inactive: 0"}
{"target": "SGTA (UniProt O43765)", "dose-dependent thermal stabilisation call": "inactive: 0"}
{"target": "SETMAR (UniProt Q53H47)", "dose-dependent thermal stabilisation call": "inactive: 0"}
{"target": "SLC2A1 (UniProt P11166)", "dose-dependent thermal stabilisation call": "inactive: 0"}
{"target": "SLC39A1 (UniProt Q9NY26)", "dose-dependent thermal stabilisation call": "inactive: 0"}
{"target": "SEMA4A (UniProt Q9H3S1)", "dose-dependent thermal stabilisation call": "inactive: 0"}
{"target": "SLC38A10 (UniProt Q9HBR0)", "dose-dependent thermal stabilisation call": "inactive: 0"}
{"target": "SLC25A4 (UniProt P12235)", "dose-dependent thermal stabilisation call": "inactive: 0"}
